In the assay the target is Calcyclin Binding Protein/(Siah-1 interacting protein) (CacyBP/SIP) (human (endogenous in SW480)) (UniProt Q9HB71). Description: co-IP; endogenous CacyBP/SIP precipitated with anti-CacyBP/SIP antibody and protein A+G agarose overnight at 4°C from extracts of SW480 cells treated with 5 μmol/L ionomycin for 30 min; western blot for S100A1 and S100A6; normal mouse IgG as control. (Immunoblotting shows a protein as a band on a membrane.)

The chains behind the UniProt entries cited, without tags or fusion partners.
UniProt Q9HB71: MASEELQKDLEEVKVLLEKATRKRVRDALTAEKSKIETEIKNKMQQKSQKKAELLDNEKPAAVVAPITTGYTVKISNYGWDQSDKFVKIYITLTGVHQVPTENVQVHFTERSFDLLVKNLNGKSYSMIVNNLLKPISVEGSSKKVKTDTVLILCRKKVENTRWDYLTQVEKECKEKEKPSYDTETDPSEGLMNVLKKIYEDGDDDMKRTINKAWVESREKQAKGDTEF
UniProt P23297: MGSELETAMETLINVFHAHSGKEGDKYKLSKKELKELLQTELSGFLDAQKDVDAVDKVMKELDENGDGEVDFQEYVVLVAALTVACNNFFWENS

These are yes or no findings as the source states them, for the method shown. In cells and extracts the contact can be indirect.

For the substance S100A1 (from UniProt P23297 1-94), the binding entry was “no binding”.

Values taken from PMC5849316.
